# Changes are numbered by the printed parent chain. This is one part of the list. For part of these data: At the low end of the ranking the order means little. For part of these data: Construct or isoform of the protein are uncertain.
# Key:
# Details in all cases: yeast three-hybrid, YBZ-1, SC-Leu-His + 0.5 mM 3-AT, 4 days
# [1] = target: T1, PUM1 PUF domain R1-QFR R2-VFQ R7-NPG S863Q + R864F + Q867R + N899V + Y900F + S1079N + N1080P + E1083G (UniProt Q14671)
# T1 sequence: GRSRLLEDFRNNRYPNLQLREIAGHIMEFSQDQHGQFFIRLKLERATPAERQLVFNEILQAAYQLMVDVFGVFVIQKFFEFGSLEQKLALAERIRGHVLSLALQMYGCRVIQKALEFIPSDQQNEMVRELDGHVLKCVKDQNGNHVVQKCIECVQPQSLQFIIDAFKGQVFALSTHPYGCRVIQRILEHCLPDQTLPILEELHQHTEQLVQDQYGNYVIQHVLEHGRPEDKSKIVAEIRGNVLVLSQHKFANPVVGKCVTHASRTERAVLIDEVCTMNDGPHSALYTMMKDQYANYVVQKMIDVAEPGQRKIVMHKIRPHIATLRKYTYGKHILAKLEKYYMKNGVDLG
# [2] = target: T2, PUM1 PUF domain R2-VFQ R3-THE R4-TFR N899V + Y900F + C935T + R936H + Q939E + N971T + H972F + Q975R (UniProt Q14671)
# T2 sequence: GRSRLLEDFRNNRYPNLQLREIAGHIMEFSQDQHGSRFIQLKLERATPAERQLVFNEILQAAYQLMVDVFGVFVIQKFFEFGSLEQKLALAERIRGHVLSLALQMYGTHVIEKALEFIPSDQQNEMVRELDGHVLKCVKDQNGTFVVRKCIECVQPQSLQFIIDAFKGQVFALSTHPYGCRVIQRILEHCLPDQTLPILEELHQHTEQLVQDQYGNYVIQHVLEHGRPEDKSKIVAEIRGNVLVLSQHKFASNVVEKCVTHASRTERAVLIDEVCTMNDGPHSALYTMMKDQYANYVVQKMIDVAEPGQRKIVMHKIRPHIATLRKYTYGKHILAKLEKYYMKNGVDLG
# [3] = target: T3, PUM1 PUF domain R3-THE R4-TFR C935T + R936H + Q939E + N971T + H972F + Q975R (UniProt Q14671)
# T3 sequence: T2 sequence with V72N, F73Y
# [4] = target: T4, PUM1 PUF domain R3-THE R4-TFR R7-NPG C935T + R936H + Q939E + N971T + H972F + Q975R + S1079N + N1080P + E1083G (Homo sapiens) (UniProt Q14671)
# T4 sequence: T2 sequence with V72N, F73Y, S252N, N253P, E256G
# [5] = target: T5, PUM1 PUF domain R5-PHQ R6-SWD C1007P + R1008H + N1043S + Y1044W + Q1047D (UniProt Q14671)
# T5 sequence: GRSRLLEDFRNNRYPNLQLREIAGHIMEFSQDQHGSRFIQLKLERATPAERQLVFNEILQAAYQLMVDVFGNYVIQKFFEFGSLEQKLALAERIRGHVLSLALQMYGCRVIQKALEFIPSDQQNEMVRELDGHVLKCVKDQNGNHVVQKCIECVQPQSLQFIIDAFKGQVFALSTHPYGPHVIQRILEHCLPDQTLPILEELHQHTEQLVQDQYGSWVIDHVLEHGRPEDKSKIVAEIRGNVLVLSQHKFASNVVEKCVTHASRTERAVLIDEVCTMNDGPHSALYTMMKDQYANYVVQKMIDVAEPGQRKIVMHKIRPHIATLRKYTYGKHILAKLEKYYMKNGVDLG
# [6] = target: T6, PUM1 PUF domain R6-SWD R7-NPG N1043S + Y1044W + Q1047D + S1079N + N1080P + E1083G (Homo sapiens) (UniProt Q14671)
# T6 sequence: T5 sequence with P180C, H181R, S252N, N253P, E256G
sequence,measurement,setting,value
GGCUAGAACUAGUGGAUCCCCCGGCGCCCGGCGGCUCGAGCCCGGGUAAGUUCGGGAGGUCUGCAUGCCGCCGGGCGCCAUGCCUGCAGGUCGACUCUAGAAAACAUG,binding signal (log2 enrichment (interaction score)),[1],-4.21
same,binding signal (log2 enrichment (interaction score)),[2],-5.45
GGCUAGAACUAGUGGAUCCCCCGGCGCCCGGCGGCUCGAGCCCGGGUAAGUUGACACCGUCUGCAUGCCGCCGGGCGCCAUGCCUGCAGGUCGACUCUAGAAAACAUG,binding signal (log2 enrichment (interaction score)),[1],-5.01
same,binding signal (log2 enrichment (interaction score)),[2],-3.91
GGCUAGAACUAGUGGAUCCCCCGGCGCCCGGCGGCUCGAGCCCGGGUAAGUGUCAGUCGUCUGCAUGCCGCCGGGCGCCAUGCCUGCAGGUCGACUCUAGAAAACAUG,binding signal (log2 enrichment (interaction score)),[1],-6.23
same,binding signal (log2 enrichment (interaction score)),[2],-5.8
GGCUAGAACUAGUGGAUCCCCCGGCGCCCGGCGGCUCGAGCCCGGGUAAGUUUAUAGUGUCUGCAUGCCGCCGGGCGCCAUGCCUGCAGGUCGACUCUAGAAAACAUG,binding signal (log2 enrichment (interaction score)),[1],-5.27
same,binding signal (log2 enrichment (interaction score)),[2],-5.21
GGCUAGAACUAGUGGAUCCCCCGGCGCCCGGCGGCUCGAGCCCGGGUAAGAUGUCGAGGUCUGCAUGCCGCCGGGCGCCAUGCCUGCAGGUCGACUCUAGAAAACAUG,binding signal (log2 enrichment (interaction score)),[1],-5.7
same,binding signal (log2 enrichment (interaction score)),[2],-4.39
GGCUAGAACUAGUGGAUCCCCCGGCGCCCGGCGGCUCGAGCCCGGGUAAGUUCAAUAAGUCUGCAUGCCGCCGGGCGCCAUGCCUGCAGGUCGACUCUAGAAAACAUG,binding signal (log2 enrichment (interaction score)),[1],-4.13
same,binding signal (log2 enrichment (interaction score)),[2],-5.68
GGCUAGAACUAGUGGAUCCCCCGGCGCCCGGCGGCUCGAGCCCGGGUAAGUGAUAAUCGUCUGCAUGCCGCCGGGCGCCAUGCCUGCAGGUCGACUCUAGAAAACAUG,binding signal (log2 enrichment (interaction score)),[1],-6.16
same,binding signal (log2 enrichment (interaction score)),[2],-5.76
GGCUAGAACUAGUGGAUCCCCCGGCGCCCGGCGGCUCGAGCCCGGGUAAGGCAGUGAAGUCUGCAUGCCGCCGGGCGCCAUGCCUGCAGGUCGACUCUAGAAAACAUG,binding signal (log2 enrichment (interaction score)),[1],< -5.36
same,binding signal (log2 enrichment (interaction score)),[2],-4.99
GGCUAGAACUAGUGGAUCCCCCGGCGCCCGGCGGCUCGAGCCCGGGUAAGUGGUCUACGUCUGCAUGCCGCCGGGCGCCAUGCCUGCAGGUCGACUCUAGAAAACAUG,binding signal (log2 enrichment (interaction score)),[1],-6.59
same,binding signal (log2 enrichment (interaction score)),[2],< -5.84
GGCUAGAACUAGUGGAUCCCCCGGCGCCCGGCGGCUCGAGCCCGGGUAAGUUGCCUUCGUCUGCAUGCCGCCGGGCGCCAUGCCUGCAGGUCGACUCUAGAAAACAUG,binding signal (log2 enrichment (interaction score)),[1],-5.92
same,binding signal (log2 enrichment (interaction score)),[2],-5.02
GGCUAGAACUAGUGGAUCCCCCGGCGCCCGGCGGCUCGAGCCCGGGUAAGUUUAGCUCGUCUGCAUGCCGCCGGGCGCCAUGCCUGCAGGUCGACUCUAGAAAACAUG,binding signal (log2 enrichment (interaction score)),[1],< -6.73
same,binding signal (log2 enrichment (interaction score)),[2],-4.9
GGCUAGAACUAGUGGAUCCCCCGGCGCCCGGCGGCUCGAGCCCGGGUAAGUUUAUAGCGUCUGCAUGCCGCCGGGCGCCAUGCCUGCAGGUCGACUCUAGAAAACAUG,binding signal (log2 enrichment (interaction score)),[1],< -7.08
same,binding signal (log2 enrichment (interaction score)),[2],-5.18
GGCUAGAACUAGUGGAUCCCCCGGCGCCCGGCGGCUCGAGCCCGGGUAAGUGUACGUCGUCUGCAUGCCGCCGGGCGCCAUGCCUGCAGGUCGACUCUAGAAAACAUG,binding signal (log2 enrichment (interaction score)),[1],-5.82
same,binding signal (log2 enrichment (interaction score)),[2],-4.54
same,binding signal (log2 enrichment (interaction score)),[3],-7.07
same,binding signal (log2 enrichment (interaction score)),[4],-1.77
same,binding signal (log2 enrichment (interaction score)),[5],-8.27
same,binding signal (log2 enrichment (interaction score)),[6],-1.02
GGCUAGAACUAGUGGAUCCCCCGGCGCCCGGCGGCUCGAGCCCGGGUAAGGGGAAUUUGUCUGCAUGCCGCCGGGCGCCAUGCCUGCAGGUCGACUCUAGAAAACAUG,binding signal (log2 enrichment (interaction score)),[1],-5.46
same,binding signal (log2 enrichment (interaction score)),[2],-6.12
GGCUAGAACUAGUGGAUCCCCCGGCGCCCGGCGGCUCGAGCCCGGGUAAGUUAAGGAGGUCUGCAUGCCGCCGGGCGCCAUGCCUGCAGGUCGACUCUAGAAAACAUG,binding signal (log2 enrichment (interaction score)),[1],-5.58
same,binding signal (log2 enrichment (interaction score)),[2],-6.75
GGCUAGAACUAGUGGAUCCCCCGGCGCCCGGCGGCUCGAGCCCGGGUAAGGUCGCACAGUCUGCAUGCCGCCGGGCGCCAUGCCUGCAGGUCGACUCUAGAAAACAUG,binding signal (log2 enrichment (interaction score)),[1],< -6.09
same,binding signal (log2 enrichment (interaction score)),[2],< -5.27
GGCUAGAACUAGUGGAUCCCCCGGCGCCCGGCGGCUCGAGCCCGGGUAAGGGUAAGGCGUCUGCAUGCCGCCGGGCGCCAUGCCUGCAGGUCGACUCUAGAAAACAUG,binding signal (log2 enrichment (interaction score)),[1],< -5.76
same,binding signal (log2 enrichment (interaction score)),[2],-5.69
GGCUAGAACUAGUGGAUCCCCCGGCGCCCGGCGGCUCGAGCCCGGGUAAGUAGGAGCUGUCUGCAUGCCGCCGGGCGCCAUGCCUGCAGGUCGACUCUAGAAAACAUG,binding signal (log2 enrichment (interaction score)),[1],-6.46
same,binding signal (log2 enrichment (interaction score)),[2],-5.33
GGCUAGAACUAGUGGAUCCCCCGGCGCCCGGCGGCUCGAGCCCGGGUAAGUUGAAAUCGUCUGCAUGCCGCCGGGCGCCAUGCCUGCAGGUCGACUCUAGAAAACAUG,binding signal (log2 enrichment (interaction score)),[1],-5.61
same,binding signal (log2 enrichment (interaction score)),[2],-5.48
same,binding signal (log2 enrichment (interaction score)),[4],-1.82
same,binding signal (log2 enrichment (interaction score)),[5],-8.59
same,binding signal (log2 enrichment (interaction score)),[6],-0.89

# Taken from the entries so far for reference:
sequence,measurement,setting,value
GGCUAGAACUAGUGGAUCCCCCGGCGCCCGGCGGCUCGAGCCCGGGUAAGGGUAAGGCGUCUGCAUGCCGCCGGGCGCCAUGCCUGCAGGUCGACUCUAGAAAACAUG,binding signal (log2 enrichment (interaction score)),[1],< -5.76
same,binding signal (log2 enrichment (interaction score)),[2],-5.69

# Source: article PMC8384837
